{"source": "PubChem BioAssay AID743121, NCATS, 2013", "assay": "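Knock-downs that sensitise breast cancer cells to camptothecin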 (primary screen)", "cells": "MDA-MB-231 cells, a human breast cancer line", "knock-down reagent": "single siRNA against human genes, 20 nM siRNA (0.8 pmol per well)", "timing": "120 h (drug added 48 h after transfection, read 72 h later)", "conditions": "camptothecin 20 nM (about EC30) for 72 h; vehicle 0.1% DMSO in parallel plates", "measurement": "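Cell viability by ATP luminescence (CellTiter-Glo) as % of non-targeting siRNA wells, and the log2 ratio of viability without drug over viability with camptothecin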", "direction": "log2 vehicle/camptothecin viability: higher = stronger sensitisation to camptothecin", "active means": "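Active genes have an RSA gene-level p-value below 0.001, computed from the ratios of their separate siRNAs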", "note": "This is an unselected part of about 26,000 reagents. 167 of all reagents (0.63%) were called active. 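Calls are per gene from RSA p-values that are not deposited; an individual active-marked siRNA can sensitise only weakly.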 A number with no mark means an inactive call. The numbers tell different reagents against one gene apart. Not all columns of the deposit are shown. Reagent sequences are not shown."}
{"Target gene":"RELB (RELB proto-oncogene, NF-kB subunit)","siRNA no.":1,"log2 vehicle/camptothecin viability":-0.258}
{"Target gene":"RELB (RELB proto-oncogene, NF-kB subunit)","siRNA no.":2,"log2 vehicle/camptothecin viability":0.211}
{"Target gene":"RELB (RELB proto-oncogene, NF-kB subunit)","siRNA no.":3,"log2 vehicle/camptothecin viability":-0.239}
{"Target gene":"RELB (RELB proto-oncogene, NF-kB subunit)","siRNA no.":4,"log2 vehicle/camptothecin viability":0.146}
{"Target gene":"UBQLN2 (ubiquilin 2)","siRNA no.":1,"log2 vehicle/camptothecin viability":-0.167}
{"Target gene":"UBQLN2 (ubiquilin 2)","siRNA no.":2,"log2 vehicle/camptothecin viability":-0.168}
{"Target gene":"UBQLN2 (ubiquilin 2)","siRNA no.":3,"log2 vehicle/camptothecin viability":-0.176}
{"Target gene":"KDM4C (lysine demethylase 4C)","siRNA no.":1,"log2 vehicle/camptothecin viability":-0.0469}
{"Target gene":"KDM4C (lysine demethylase 4C)","siRNA no.":2,"log2 vehicle/camptothecin viability":0.268}
{"Target gene":"KDM4C (lysine demethylase 4C)","siRNA no.":3,"log2 vehicle/camptothecin viability":0.707}
{"Target gene":"CASP8AP2 (caspase 8 associated protein 2)","siRNA no.":1,"log2 vehicle/camptothecin viability":-0.37}
{"Target gene":"CASP8AP2 (caspase 8 associated protein 2)","siRNA no.":2,"log2 vehicle/camptothecin viability":-0.838}
{"Target gene":"CASP8AP2 (caspase 8 associated protein 2)","siRNA no.":3,"log2 vehicle/camptothecin viability":-0.0238}

4 entries already listed, arranged by “log2 vehicle/camptothecin viability”, lowest first:
{"Target gene":"UBQLN2 (ubiquilin 2)","siRNA no.":3,"log2 vehicle/camptothecin viability":-0.176}
{"Target gene":"UBQLN2 (ubiquilin 2)","siRNA no.":2,"log2 vehicle/camptothecin viability":-0.168}
{"Target gene":"KDM4C (lysine demethylase 4C)","siRNA no.":1,"log2 vehicle/camptothecin viability":-0.0469}
{"Target gene":"KDM4C (lysine demethylase 4C)","siRNA no.":2,"log2 vehicle/camptothecin viability":0.268}

Further results:
{"Target gene":"GTF2B (general transcription factor IIB)","siRNA no.":1,"log2 vehicle/camptothecin viability":-0.0506}
{"Target gene":"GTF2B (general transcription factor IIB)","siRNA no.":2,"log2 vehicle/camptothecin viability":-0.0917}
{"Target gene":"GTF2B (general transcription factor IIB)","siRNA no.":3,"log2 vehicle/camptothecin viability":-0.292}
{"Target gene":"GTF2B (general transcription factor IIB)","siRNA no.":4,"log2 vehicle/camptothecin viability":0.127}
{"Target gene":"PHF1 (PHD finger protein 1)","siRNA no.":1,"log2 vehicle/camptothecin viability":-0.59}
{"Target gene":"PHF1 (PHD finger protein 1)","siRNA no.":2,"log2 vehicle/camptothecin viability":0.424}
{"Target gene":"PHF1 (PHD finger protein 1)","siRNA no.":3,"log2 vehicle/camptothecin viability":-0.287}
{"Target gene":"FCRL6 (Fc receptor like 6)","siRNA no.":1,"log2 vehicle/camptothecin viability":-0.269}
{"Target gene":"FCRL6 (Fc receptor like 6)","siRNA no.":2,"log2 vehicle/camptothecin viability":-0.542}
{"Target gene":"FCRL6 (Fc receptor like 6)","siRNA no.":3,"log2 vehicle/camptothecin viability":-0.0899}
{"Target gene":"FCRL6 (Fc receptor like 6)","siRNA no.":4,"log2 vehicle/camptothecin viability":-0.606}
{"Target gene":"PGAP2 (post-GPI attachment to proteins 2)","siRNA no.":1,"log2 vehicle/camptothecin viability":0.0159}
{"Target gene":"PGAP2 (post-GPI attachment to proteins 2)","siRNA no.":2,"log2 vehicle/camptothecin viability":-0.0908}
{"Target gene":"PGAP2 (post-GPI attachment to proteins 2)","siRNA no.":3,"log2 vehicle/camptothecin viability":-0.519}
{"Target gene":"DOP1A (DOP1 leucine zipper like protein A)","siRNA no.":1,"log2 vehicle/camptothecin viability":0.00793}
{"Target gene":"DOP1A (DOP1 leucine zipper like protein A)","siRNA no.":2,"log2 vehicle/camptothecin viability":0.00453}
{"Target gene":"DOP1A (DOP1 leucine zipper like protein A)","siRNA no.":3,"log2 vehicle/camptothecin viability":-0.176}
{"Target gene":"DOP1A (DOP1 leucine zipper like protein A)","siRNA no.":4,"log2 vehicle/camptothecin viability":0.0153}
{"Target gene":"ITGAV (integrin subunit alpha V)","siRNA no.":1,"log2 vehicle/camptothecin viability":-0.14}
{"Target gene":"ITGAV (integrin subunit alpha V)","siRNA no.":2,"log2 vehicle/camptothecin viability":-0.509}
{"Target gene":"ITGAV (integrin subunit alpha V)","siRNA no.":3,"log2 vehicle/camptothecin viability":-0.124}
{"Target gene":"ITGAV (integrin subunit alpha V)","siRNA no.":4,"log2 vehicle/camptothecin viability":-0.459}
